Data on seven compounds can be found in the odorant receptor screen of Mainland et al. (2015).

Several values for one entry are separate records, joined by “and”; a condition that tells them apart may be missing. Equal values may be shown once. The list shows a part of the results. Each value is one well over the wells without odorant, computed here; the data are noisy.

Test systems include OR4K13 clone 1266; OR4K14 clone 1276; OR4K17 clone 1319; OR4K17 clone 1420; OR4K2 clone 1258; OR4K3 clone 1259; OR4K5 clone 1261; OR4L1 R52S clone 1265; OR4M1 clone 1559; OR4M2 clone 1278; OR4N2 clone 1270; OR4N4 clone 1277; OR4N5 clone 1262; OR4P4 R231C clone 1398; OR4P4 clone 1139; OR4Q3 clone 1411; OR4S1 clone 1283; OR4S2 clone 1175; OR4X2 clone 1193.
What all share (test): odorant receptor activation (CRE luciferase / Renilla) (fold of no-odor wells); higher = more activation
Common to all, as to conditions: 100 µM

In assay [1] the test system is OR4K15 N65S/E88V/S93A/A231E/L280P/I286M clone 1566.

In the case of `O=C1CCCCCCCCCCCC(=O)OCCO1` [ethylene brassylate], the odorant receptor activation came out at 1.71 with OR4K13 clone 1266; 1.58 in the assay with OR4K14 clone 1276; 1.22 in assay [1]; 1.42 in the assay with OR4K17 clone 1319; 1.62 with OR4K17 clone 1420; 1.78 in the assay with OR4K2 clone 1258. In addition, the odorant receptor activation in the assay on OR4K3 clone 1259 was 1.38; with OR4K5 clone 1261, 1.47; in the assay on OR4L1 R52S clone 1265 it was 1.44; in the assay with OR4M1 clone 1559, 1.26; in the assay on OR4M2 clone 1278, 1.45; in the assay with OR4N2 clone 1270, 1.82. Further, the odorant receptor activation is 1.67 in the assay on OR4N4 clone 1277; 1.78 in the assay on OR4N5 clone 1262; 1.64 in the assay with OR4P4 R231C clone 1398; 1.5 in the assay with OR4P4 clone 1139; 1.98 with OR4Q3 clone 1411; 1.43 in the assay on OR4S1 clone 1283. In addition, the odorant receptor activation came out at 1.65 in the assay with OR4S2 clone 1175 and 1.72 with OR4X2 clone 1193.

Regarding `O=C1CCCCC1` [Cyclohexanone], the odorant receptor activation in the assay with OR4K13 clone 1266 was 0.588; in the assay on OR4K14 clone 1276, 0.408; in the assay with OR4K17 clone 1319 it was 0.954; with OR4K17 clone 1420, 0.817; in the assay with OR4K2 clone 1258 it was 0.278; in the assay on OR4K3 clone 1259, 0.343. Further, the odorant receptor activation worked out at 0.418 with OR4K5 clone 1261; 0.862 in the assay on OR4L1 R52S clone 1265; 0.175 in the assay with OR4M2 clone 1278; 0.518 in the assay with OR4N2 clone 1270; 0.338 with OR4N4 clone 1277; 0.696 with OR4N5 clone 1262. In addition, the odorant receptor activation with OR4P4 R231C clone 1398 came to 0.793; with OR4P4 clone 1139 it was 0.896; in the assay with OR4Q3 clone 1411, 1.01; in the assay on OR4S1 clone 1283, 0.394; with OR4S2 clone 1175, 1.15; with OR4X2 clone 1193, 1.08.

Turning to `CC1COCc2cc3c(cc21)C(C)(C)C(C)C3(C)C` (configuration not stated) [galaxolide], the odorant receptor activation is 1.09 and 1.94 with OR4K13 clone 1266; 1.56 and 1.14 in the assay with OR4K14 clone 1276; 3.34 in the assay with OR4K17 clone 1420; 3.86 and 1.5 with OR4K2 clone 1258; 3.14 and 3.91 in the assay with OR4K3 clone 1259; 1.22 and 1.24 with OR4L1 R52S clone 1265. Moreover, the odorant receptor activation in the assay with OR4M1 clone 1559 was 0.83 and 1.25; in the assay on OR4M2 clone 1278, 4.71 and 4.2; in the assay with OR4N2 clone 1270, 3.62 and 1.27; in the assay with OR4N4 clone 1277 it was 1.56 and 4.09; in the assay on OR4N5 clone 1262, 1.3 and 0.875; in the assay on OR4P4 R231C clone 1398, 2.81. Also, the odorant receptor activation in the assay with OR4P4 clone 1139 was found to be 0.477; in the assay with OR4Q3 clone 1411, 2.52; with OR4S2 clone 1175, 3.28; in the assay with OR4X2 clone 1193, 0.678.

With `COC(=O)c1ccccc1` [methyl benzoate], the odorant receptor activation was determined as 0.785 in the assay with OR4K13 clone 1266; 0.421 in the assay with OR4K14 clone 1276; 0.867 in the assay with OR4K17 clone 1319; 0.793 in the assay on OR4K17 clone 1420; 0.445 in the assay with OR4K2 clone 1258; 0.631 in the assay with OR4K3 clone 1259. The odorant receptor activation in the assay on OR4K5 clone 1261 came to 1.97; in the assay on OR4L1 R52S clone 1265, 1.55; in the assay with OR4M2 clone 1278, 0.242; in the assay on OR4N2 clone 1270, 0.722; with OR4N4 clone 1277 it was 0.51; in the assay with OR4N5 clone 1262, 0.7. Moreover, the odorant receptor activation with OR4P4 R231C clone 1398 was 0.634; in the assay on OR4P4 clone 1139, 0.949; in the assay on OR4Q3 clone 1411, 1.04; in the assay with OR4S1 clone 1283 it was 0.464; in the assay with OR4S2 clone 1175, 0.87; in the assay on OR4X2 clone 1193 it was 0.878.

Regarding `CC1=CCC(C(C)(C)O)CC1` (configuration not stated) [terpineol], the odorant receptor activation in the assay on OR4K13 clone 1266 turned out to be 0.932; in the assay with OR4K14 clone 1276 it was 0.917; in assay [1] it was 0.997; in the assay on OR4K17 clone 1319, 0.995; in the assay with OR4K17 clone 1420, 0.943; in the assay with OR4K2 clone 1258, 0.821. For the same compound, the odorant receptor activation in the assay with OR4K3 clone 1259 worked out at 1.1; with OR4K5 clone 1261, 0.776; in the assay on OR4L1 R52S clone 1265, 1.01; in the assay with OR4M1 clone 1559, 0.798; in the assay with OR4M2 clone 1278 it was 1.22; in the assay on OR4N2 clone 1270, 0.946. Moreover, the odorant receptor activation in the assay on OR4N4 clone 1277 worked out at 0.918; with OR4N5 clone 1262, 1; in the assay with OR4P4 R231C clone 1398 it was 0.88; with OR4P4 clone 1139 it was 1.13; in the assay on OR4Q3 clone 1411 it was 1.17; in the assay on OR4S1 clone 1283, 0.858. Also, the odorant receptor activation in the assay with OR4S2 clone 1175 is 1.24; with OR4X2 clone 1193, 1.09.

Take `CCCCCCCCCCC=O` [undecanal]: the odorant receptor activation with OR4K13 clone 1266 turned out to be 0.882; in the assay with OR4K14 clone 1276 it was 1.11; in assay [1], 1.21; in the assay on OR4K17 clone 1319, 0.956; in the assay with OR4K17 clone 1420, 1.02; in the assay with OR4K2 clone 1258, 0.939. Moreover, the odorant receptor activation in the assay on OR4K3 clone 1259 was 1.17; in the assay on OR4K5 clone 1261, 0.85; in the assay on OR4L1 R52S clone 1265, 0.957; in the assay with OR4M1 clone 1559 it was 0.847; with OR4M2 clone 1278, 1.2; in the assay with OR4N2 clone 1270 it was 0.928. The odorant receptor activation was determined as 0.875 with OR4N4 clone 1277; 0.99 in the assay on OR4N5 clone 1262; 0.926 in the assay on OR4P4 R231C clone 1398; 0.885 in the assay on OR4P4 clone 1139; 1.18 in the assay on OR4Q3 clone 1411; 0.852 in the assay on OR4S1 clone 1283. Besides, the odorant receptor activation with OR4S2 clone 1175 came out at 1.16; in the assay with OR4X2 clone 1193, 0.881.

On to `CC(=O)OCC=C(C)CCC=C(C)C` [geranyl acetate], for which the odorant receptor activation with OR4K13 clone 1266 is 1 and 0.855; in the assay with OR4K14 clone 1276, 1.13 and 0.96; in [1], 1.29; in the assay on OR4K17 clone 1319, 0.646 and 1.16; in the assay with OR4K17 clone 1420, 1.09; in the assay with OR4K2 clone 1258 it was 1.04 and 1.08. The odorant receptor activation is 1.55 and 1.21 in the assay on OR4K3 clone 1259; 0.936 and 1.33 with OR4K5 clone 1261; 0.946 and 1.3 in the assay with OR4L1 R52S clone 1265; 1.3 in the assay with OR4M1 clone 1559; 1.24 and 1.14 in the assay with OR4M2 clone 1278; 1.56 and 0.931 in the assay on OR4N2 clone 1270. The odorant receptor activation in the assay with OR4N4 clone 1277 was 0.899 and 1.01; in the assay on OR4N5 clone 1262, 1.08 and 0.842; with OR4P4 R231C clone 1398, 0.86; in the assay with OR4P4 clone 1139, 0.634; in the assay with OR4Q3 clone 1411 it was 1.19; in the assay on OR4S1 clone 1283, 1.09 and 1.68. In addition, the odorant receptor activation is 1.16 in the assay on OR4S2 clone 1175 and 0.974 with OR4X2 clone 1193.
